Sequences of proteins named here, by UniProt entry; tags and fusion partners are left off. Residues count along the entry.
UniProt P0A7G6, 2-353: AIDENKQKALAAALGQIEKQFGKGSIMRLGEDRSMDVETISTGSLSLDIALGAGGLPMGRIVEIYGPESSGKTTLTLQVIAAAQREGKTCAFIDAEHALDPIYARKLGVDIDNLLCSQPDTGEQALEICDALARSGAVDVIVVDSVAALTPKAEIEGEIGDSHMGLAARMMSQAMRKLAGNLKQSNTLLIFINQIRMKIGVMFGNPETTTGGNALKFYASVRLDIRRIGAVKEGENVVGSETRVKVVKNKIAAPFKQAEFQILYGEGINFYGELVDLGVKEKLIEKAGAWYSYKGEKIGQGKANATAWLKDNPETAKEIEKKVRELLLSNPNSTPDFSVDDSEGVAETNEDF

According to patent publication US5670316:

Target: RecA (UniProt P0A7G6)
Assay: activity assay
Conditions: deproteinization-stable double D-loop on lambda DraI target; too much RecA decreases product; purified recombinant protein; label: 32P 5'-end; single-stranded DNA

## CGGTGTGGCAGCCGAAATGACAGAGCGCGGCCTGGCCAGAATGCAATAACGGGAGGCGCTGTGGCTGATTTCGATAACC [lambda 79-mer probe (7552-7630), heat denatured]
  activity on this sequence: active
